Laboratory results from paper PMC6201373.
Where two headings read alike, the source gives them in different places. Results are given in words; binding and its absence hold for the method and conditions named. Binding seen in cells or lysates may run through a third protein. Binding calls can cover weak binding; strength is not graded here. Blank lines part the entries; values can stand above or below the molecule they belong to.

Experiments:
[1] = molecular target: Unc‐51‐like kinase 1 (ULK1) (rat (endogenous in neonatal SD rat cardiomyocytes)) (UniProt D3ZMG0); assay: co-IP; whole-cell lysates of rat neonatal cardiomyocytes (OGD 4 h; treated with PEDF, AICAR, Compound C, Go6976, shULK1 or mULK1 Δ654-828 as indicated) immunoprecipitated overnight at 4°C with anti-ULK1 antibody, protein A/G agarose beads, washed 3 times with lysis buffer, immunoblot; rabbit normal IgG as negative control
[2] = molecular target: Unc‐51‐like kinase 1 (ULK1) (rat (endogenous in neonatal SD rat cardiomyocytes)) (UniProt D3ZMG0); assay: as above; remark: listed apart in the source

binding [1]: binds
Molecule: phospho‐PKCα (p‐PKCα, Ser 657) (from UniProt P05696 1-672) (enzyme)

binding [1]: binds
Molecule: protein kinase Cα (PKCα) (from UniProt P05696 1-672) (enzyme)

binding [2]: binds
B1: 14‐3‐3τ (protein, UniProt P68255 1-245)
chain: MEKTELIQKAKLAEQAERYDDMATCMKAVTEQGAELSNEERNLLSVAYKNVVGGRRSAWRVISSIEQKTDTSDKKLQLIKDYREKVESELRSICTTVLELLDKYLIANATNPESKVFYLKMKGDYFRYLAEVACGDDRKQTIENSQGAYQEAFDISKKEMQPTHPIRLGLALNFSVFYYEILNNPELACTLAKTAFDEAIAELDTLNEDSYKDSTLIMQLLRDNLTLWTSDSAGEECDAAEGAEN
